From patent publication US20170306346A1
Positions count from the first letter of the chain named. Names may count otherwise. Results are given in words; binding and its absence hold for the method and conditions named. In cells and extracts the contact can be indirect. Some entries that bind do so weakly or less than the wild type. Sequences can lack the tags named with a protein. Blank lines part the entries; values can stand above or below the binder they belong to.

Sequences of proteins named here, by UniProt entry; tags and fusion partners are left off.
UniProt Q39204: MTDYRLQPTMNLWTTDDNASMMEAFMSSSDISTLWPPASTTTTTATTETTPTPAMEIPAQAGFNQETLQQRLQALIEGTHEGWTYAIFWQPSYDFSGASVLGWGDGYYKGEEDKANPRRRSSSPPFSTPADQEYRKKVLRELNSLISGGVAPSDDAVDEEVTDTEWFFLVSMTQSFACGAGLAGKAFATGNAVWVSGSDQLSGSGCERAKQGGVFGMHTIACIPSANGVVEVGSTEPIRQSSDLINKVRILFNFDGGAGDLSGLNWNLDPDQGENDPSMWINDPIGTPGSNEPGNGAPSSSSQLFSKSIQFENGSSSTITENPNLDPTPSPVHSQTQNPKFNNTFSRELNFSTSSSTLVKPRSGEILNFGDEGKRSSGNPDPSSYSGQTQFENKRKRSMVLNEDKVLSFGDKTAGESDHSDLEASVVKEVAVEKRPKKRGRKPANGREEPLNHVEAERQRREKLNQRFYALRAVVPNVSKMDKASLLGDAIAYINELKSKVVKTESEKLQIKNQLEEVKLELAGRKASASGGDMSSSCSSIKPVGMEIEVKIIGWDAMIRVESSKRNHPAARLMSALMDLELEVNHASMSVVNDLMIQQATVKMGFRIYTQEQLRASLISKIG

Legend:
[1] = target: GST-MYC2-HA (Arabidopsis thaliana) (UniProt Q39204); assay: in vitro pull-down, MBP-PUB11 deletion derivatives as baits, GST-MYC2 prey (FIG. 7B)
[2] = target: GST-MYC2-HA (Arabidopsis thaliana) (UniProt Q39204); assay: in vitro pull-down with deletion derivatives
[3] = target: GST-MYC2-HA (Arabidopsis thaliana) (UniProt Q39204); assay: in vitro pull-down, MBP-PUB10 deletion derivatives as baits, GST-MYC2 prey
[4] = target: GST-MYC2-HA (Arabidopsis thaliana) (UniProt Q39204); assay: in vitro pull-down, MBP-PUB10 deletion derivatives as baits, GST-MYC2 prey (FIG. 1B)
[5] = target: GST-AtUBC2 (Arabidopsis) [GST: P08515]; assay: in vitro pull-down, MBP-PUB11 with GST-AtUBC2
[6] = target: GST-AtUBC8 (Arabidopsis) [GST: P08515]; assay: in vitro pull-down, MBP-PUB11 with GST-AtUBC8
[7] = target: T1, GST-AtUBC31 (Arabidopsis) (UniProt Q9C8X7); assay: in vitro pull-down, MBP-PUB11 with GST-AtUBC31
T1 sequence: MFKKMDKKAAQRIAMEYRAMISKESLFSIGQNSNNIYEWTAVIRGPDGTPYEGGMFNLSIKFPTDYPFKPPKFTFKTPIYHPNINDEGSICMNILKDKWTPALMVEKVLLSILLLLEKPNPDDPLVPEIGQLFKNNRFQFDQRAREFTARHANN

[8] = target: GST-AtUBC36 (Arabidopsis) [GST: P08515]; assay: in vitro pull-down, MBP-PUB11 with GST-AtUBC36
[9] = target: GST-MYC2-HA (Arabidopsis thaliana) (UniProt Q39204); assay: in vitro pull-down, MBP-PUB11 bait, GST-MYC2 prey, anti-GST Western blot
[10] = target: GST-AtUBC2 (Arabidopsis) [GST: P08515]; assay: in vitro pull-down, MBP-PUB11 with GST-AtUBC2, anti-MBP antibody (FIG. 9)
[11] = target: GST-AtUBC8 (Arabidopsis) [GST: P08515]; assay: in vitro pull-down, MBP-PUB11 with GST-AtUBC8, anti-MBP antibody (FIG. 9)
[12] = target: T1, GST-AtUBC31 (Arabidopsis); assay: in vitro pull-down, MBP-PUB11 with GST-AtUBC31, anti-MBP antibody (FIG. 9)
[13] = target: GST-AtUBC36 (Arabidopsis) [GST: P08515]; assay: in vitro pull-down, MBP-PUB11 with GST-AtUBC36, anti-MBP antibody (FIG. 9)
[14] = target: GST-MYC2-HA (Arabidopsis thaliana) (UniProt Q39204); assay: in vitro pull-down, MBP-PUB11 bait, GST-MYC2 prey, anti-GST antibody (FIG. 7B)
[15] = target: GST-MYC2-HA (Arabidopsis thaliana) (UniProt Q39204); assay: in vitro pull-down (FIGS. 1B and 1C)
[16] = target: GST-MYC2-HA (Arabidopsis thaliana) (UniProt Q39204); assay: in vitro pull-down with purified proteins
[17] = target: GST-AtUBC2 (Arabidopsis) [GST: P08515]; assay: in vitro pull-down, MBP-PUB10 with GST-AtUBC2
[18] = target: GST-AtUBC8 (Arabidopsis) [GST: P08515]; assay: in vitro pull-down, MBP-PUB10 with GST-AtUBC8
[19] = target: T1, GST-AtUBC31 (Arabidopsis); assay: in vitro pull-down, MBP-PUB10 with GST-AtUBC31
[20] = target: GST-AtUBC36 (Arabidopsis) [GST: P08515]; assay: in vitro pull-down, MBP-PUB10 with GST-AtUBC36
[21] = target: GST-AtUBC2 (Arabidopsis) [GST: P08515]; assay: in vitro pull-down, MBP-PUB10 with GST-AtUBC2, anti-MBP antibody (FIG. 9)
[22] = target: GST-AtUBC8 (Arabidopsis) [GST: P08515]; assay: in vitro pull-down, MBP-PUB10 with GST-AtUBC8, anti-MBP antibody (FIG. 9)
[23] = target: T1, GST-AtUBC31 (Arabidopsis); assay: in vitro pull-down, MBP-PUB10 with GST-AtUBC31, anti-MBP antibody (FIG. 9)
[24] = target: GST-AtUBC36 (Arabidopsis) [GST: P08515]; assay: in vitro pull-down, MBP-PUB10 with GST-AtUBC36, anti-MBP antibody (FIG. 9)
[25] = target: GST-MYC2-HA (Arabidopsis thaliana) (UniProt Q39204); assay: in vitro pull-down, MBP-PUB10 bait on amylose resin, GST-MYC2 prey, anti-GST Western blot
[26] = target: myc-MYC2 (Arabidopsis thaliana) (UniProt Q39204); assay: summary of the in vivo results (co-immunoprecipitation in Arabidopsis)
[27] = target: myc-MYC2 (Arabidopsis thaliana) (UniProt Q39204); assay: co-immunoprecipitation with anti-myc antibody from double transgenic Arabidopsis seedlings, anti-HA Western blot
[28] = target: myc-MYC2 (Arabidopsis thaliana) (UniProt Q39204); assay: co-immunoprecipitation with anti-myc antibody from double transgenic Arabidopsis seedlings, Western blot (FIGS. 3C and 3D)
[29] = target: T2, GST-PUB10 (Arabidopsis thaliana) (UniProt Q9C9A6); assay: in vitro pull-down, GST-PUB10 fusions as baits and MBP-PUB10 fusions as preys
T2 sequence: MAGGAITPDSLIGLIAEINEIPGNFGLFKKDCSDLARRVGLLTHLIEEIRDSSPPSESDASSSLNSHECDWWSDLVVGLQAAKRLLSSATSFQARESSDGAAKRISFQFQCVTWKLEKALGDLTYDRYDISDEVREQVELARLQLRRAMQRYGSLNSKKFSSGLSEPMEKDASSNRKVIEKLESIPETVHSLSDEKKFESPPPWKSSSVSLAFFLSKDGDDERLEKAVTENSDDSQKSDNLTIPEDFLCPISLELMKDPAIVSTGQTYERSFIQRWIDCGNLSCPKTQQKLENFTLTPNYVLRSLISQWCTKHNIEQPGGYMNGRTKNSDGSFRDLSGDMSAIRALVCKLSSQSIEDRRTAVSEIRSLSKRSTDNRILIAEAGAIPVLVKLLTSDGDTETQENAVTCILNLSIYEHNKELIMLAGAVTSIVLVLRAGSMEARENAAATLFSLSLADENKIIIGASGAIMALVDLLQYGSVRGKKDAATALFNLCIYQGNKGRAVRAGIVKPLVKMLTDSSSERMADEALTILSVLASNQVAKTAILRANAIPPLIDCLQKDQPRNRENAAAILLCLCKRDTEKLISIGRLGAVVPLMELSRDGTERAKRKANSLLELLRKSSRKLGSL

[30] = target: GST-MYC2-HA (Arabidopsis thaliana) (UniProt Q39204); assay: in vitro pull-down, MBP-PUB10 (C249A) bait, GST-MYC2 prey, anti-GST Western blot
[31] = target: T2, GST-PUB10 (Arabidopsis thaliana); assay: in vitro pull-down, GST-PUB10 fusions as baits and MBP-PUB10 fusions as preys (FIG. 1C)

binding [1]: binds
B1: MBP-PUB11-(ARM) (enzyme, not shown: large carriers)
chain: INGRTKNSGDMSVIRALVQRLSSRSTEDRRNAVSEIRSLSKRSTDNRILIAEAGAIPVLVNLLTSEDVATQENAITCVLNLSIYENNKELIMFAGAVTSIVQVLRAGTMEARENAAATLFSLSLADENKIIIGGSGAIPALVDLLENGTPRGKKDAATALFNLCIYHGNKGRAVRAGIVTALVKMLSDSTRHRMVDEALTILSVLANNQDAKSAIVKANTLPALIGILQTDQTRNRENAAAILLSLCKRDTEKLITIGRLGAVVPLMDLSKNGTERGKRKAISLLELLRKACQ

binding [2]: binds
binding [3]: binds
binding [4]: binds
B2: MBP-PUB10 (ARM)-6myc (enzyme, not shown: large carriers; small tags and cut ends)
chain: GYMNGRTKNSDGSFRDLSGDMSAIRALVCKLSSQSIEDRRTAVSEIRSLSKRSTDNRILIAEAGAIPVLVKLLTSDGDTETQENAVTCILNLSIYEHNKELIMLAGAVTSIVLVLRAGSMEARENAAATLFSLSLADENKIIIGASGAIMALVDLLQYGSVRGKKDAATALFNLCIYQGNKGRAVRAGIVKPLVKMLTDSSSERMADEALTILSVLASNQVAKTAILRANAIPPLIDCLQKDQPRNRENAAAILLCLCKRDTEKLISIGRLGAVVPLMELSRDGTERAKRKANSLLELLRKSSRKLGSL

binding [5]: binds
binding [6]: binds
binding [7]: binds
binding [8]: binds
binding [9]: binds
binding [10]: binds
binding [11]: binds
binding [12]: binds
binding [13]: binds
binding [14]: binds
B3: MBP-PUB11-myc (enzyme, not shown: large carriers; small tags and cut ends)
chain: MAGGIVSPASLLDLIADIVEIPLNTGMFKKDCADLTRRVCLLTHLLEEIRDSTPIDSAASSSSENDWWSDLVVGLQAAKRLLSTARFQARDSSDGAAKRISFQFQCVTWKLEKALSNLPYDLYDISDEVGEQVELARSQLRRAMQRYGSLNSNKFSSALSEPMERDGFSNVIKIKAEEKLESVSETLHFGEEEEKQSSPPLRRSSSISLAYYLSKDADTDRLDKMVNKNTDESKKSDKLTIPVDFLCPVSLELMKDPVIVATGQTYERAYIQRWIDCGNLTCPKTQQKLENFTLTPNYVLRSLISRWCAEHNIEQPAGYINGRTKNSGDMSVIRALVQRLSSRSTEDRRNAVSEIRSLSKRSTDNRILIAEAGAIPVLVNLLTSEDVATQENAITCVLNLSIYENNKELIMFAGAVTSIVQVLRAGTMEARENAAATLFSLSLADENKIIIGGSGAIPALVDLLENGTPRGKKDAATALFNLCIYHGNKGRAVRAGIVTALVKMLSDSTRHRMVDEALTILSVLANNQDAKSAIVKANTLPALIGILQTDQTRNRENAAAILLSLCKRDTEKLITIGRLGAVVPLMDLSKNGTERGKRKAISLLELLRKACQ

binding [15]: binds
binding [16]: binds
binding [17]: binds
binding [18]: binds
binding [19]: binds
binding [20]: binds
binding [21]: binds
binding [22]: binds
binding [23]: binds
binding [24]: binds
binding [25]: binds
B4: MBP-PUB10-6myc (enzyme, not shown: large carriers; small tags and cut ends)
chain: T2 sequence

binding [26]: binds
binding [27]: binds
binding [28]: binds
B5: HA-PUB10 (enzyme, not shown: small tags and cut ends)
chain: T2 sequence

binding [15]: binds
binding [29]: binds
binding [30]: binds
binding [31]: binds
B6: MBP-PUB10 (C249A)-6myc (enzyme, not shown: large carriers; small tags and cut ends)
chain: T2 sequence with C249A

binding [27]: binds
B7: HA-PUB10 (C249A) (enzyme, not shown: small tags and cut ends)
chain: T2 sequence with C249A
